From publication PMC10917647

Biological target: T1, Psc3-PK (S. pombe) (UniProt O13816)
T1 sequence: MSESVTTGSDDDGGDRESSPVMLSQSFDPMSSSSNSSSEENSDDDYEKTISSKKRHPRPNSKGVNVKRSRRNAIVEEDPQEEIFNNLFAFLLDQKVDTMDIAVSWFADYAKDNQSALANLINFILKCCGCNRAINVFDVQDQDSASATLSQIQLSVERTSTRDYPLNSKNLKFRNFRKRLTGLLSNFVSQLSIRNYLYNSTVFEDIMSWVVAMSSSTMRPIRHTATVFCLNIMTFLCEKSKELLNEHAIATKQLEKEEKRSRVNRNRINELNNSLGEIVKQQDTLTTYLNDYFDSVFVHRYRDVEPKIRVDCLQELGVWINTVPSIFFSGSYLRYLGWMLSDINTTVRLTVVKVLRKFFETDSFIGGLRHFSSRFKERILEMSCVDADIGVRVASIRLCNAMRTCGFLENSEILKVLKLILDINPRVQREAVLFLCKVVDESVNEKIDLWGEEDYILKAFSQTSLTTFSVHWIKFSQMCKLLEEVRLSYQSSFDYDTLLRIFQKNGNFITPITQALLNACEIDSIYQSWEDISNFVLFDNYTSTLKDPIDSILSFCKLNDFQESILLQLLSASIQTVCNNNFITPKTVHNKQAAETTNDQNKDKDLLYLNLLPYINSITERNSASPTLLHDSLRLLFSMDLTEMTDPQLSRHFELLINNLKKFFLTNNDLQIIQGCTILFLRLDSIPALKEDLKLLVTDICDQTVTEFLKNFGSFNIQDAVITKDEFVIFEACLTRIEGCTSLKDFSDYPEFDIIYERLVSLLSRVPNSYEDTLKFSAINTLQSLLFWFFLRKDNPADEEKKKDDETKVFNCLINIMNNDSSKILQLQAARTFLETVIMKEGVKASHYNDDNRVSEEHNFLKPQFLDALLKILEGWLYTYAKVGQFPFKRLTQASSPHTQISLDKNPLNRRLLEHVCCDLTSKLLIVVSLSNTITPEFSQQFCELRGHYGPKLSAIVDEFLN
Test: affinity purification with mass spectrometry; cell extracts of WT and moa1Δ meiotic prophase I cells expressing Psc3-PK; immunopurified by anti-Pk antibodies, analysed by mass spectrometry

binding: binds
B1: Rec8 (protein, UniProt P36626 1-561)
chain: MFYNQDVLTKEKGGMGVIWLAATLGSKHSLRKLHKKDIMSVDIDEACDFVAFSPEPLALRLSSNLMIGVTRVWAHQYSFFHSQVSTLHLRVRKELDHFTSKPFKNIDIQNEQTNPKQLLLAEDPAFIPEVSLYDAFNLPSVDLHVDMSSFTQPKENPNISVLETLPDSTSYLINTSQNYSLRNNVSSFVYEDSRAFSTEEPLDFEFDENGDIQELTKGTINSDPSLQAASQHSNLGSVQREYNSEEQESRIHMFEIDEDVLPLPVPLQSVMDSEHNENEPRALKRRKVQKLLEPDENIELSTRTLSQWRKNYVERMIALEATKYVRRRGASSAKKKELNKFFDWESFHPLLKPWIEKLKPSNNTPSEIDDVLRNIDTSEVEVGRDVQGELGLNIPWNTSSRSNSAINSKSHSQTGSEHSTPLLDTKYRKRLPHSPSMPSRVEFLPALESSQFHETLNSELSLQLSDDFVLYKNTQEENAHLMLSMEKECANFYEYAKTAIYENNGRITFSSLLPNDLKRPVVAQAFSHLLSLATKSAFLVKQDKPYSEISVSLNLKSTDAI

Results are given in words; binding and its absence hold for the method and conditions named. Binding seen in cells or lysates may run through a third protein. Here binding means that the protein was enriched with, or labelled near, the bait; the list need not be complete.
